Data from the supplement of paper PMC3334620.
Over roughly 33,000 sequences, “E-score (-0.5 to 0.5)” has its median near -0.015; the highest 2% begin near 0.3. The list shows a part of the results.

Biological target: T1, Abf1 (UniProt P14164)
T1 sequence: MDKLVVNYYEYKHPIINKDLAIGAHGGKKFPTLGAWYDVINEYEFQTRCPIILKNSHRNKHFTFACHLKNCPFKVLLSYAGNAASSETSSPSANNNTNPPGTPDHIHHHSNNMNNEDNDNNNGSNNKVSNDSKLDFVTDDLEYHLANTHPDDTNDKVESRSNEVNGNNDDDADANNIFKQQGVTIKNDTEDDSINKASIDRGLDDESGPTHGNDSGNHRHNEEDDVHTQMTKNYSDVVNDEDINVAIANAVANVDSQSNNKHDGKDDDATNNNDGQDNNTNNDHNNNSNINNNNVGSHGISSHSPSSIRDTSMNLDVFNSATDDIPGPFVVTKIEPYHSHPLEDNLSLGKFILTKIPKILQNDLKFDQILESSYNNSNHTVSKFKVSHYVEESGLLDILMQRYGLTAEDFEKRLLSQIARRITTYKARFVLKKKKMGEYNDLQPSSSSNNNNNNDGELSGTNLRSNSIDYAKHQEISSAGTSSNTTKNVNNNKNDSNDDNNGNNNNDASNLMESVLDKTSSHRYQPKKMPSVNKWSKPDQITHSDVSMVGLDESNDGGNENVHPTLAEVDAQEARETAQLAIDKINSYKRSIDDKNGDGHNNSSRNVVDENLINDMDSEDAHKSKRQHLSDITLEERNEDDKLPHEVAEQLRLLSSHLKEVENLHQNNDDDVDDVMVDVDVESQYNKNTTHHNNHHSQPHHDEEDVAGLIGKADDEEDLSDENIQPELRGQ
Assay: PBM E-score (8-mer binding enrichment) (E-score (-0.5 to 0.5)); higher = stronger / more preferred TF binding
Conditions: protein concentration: 200 nM; construct: GST-full length
In short: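 Universal all-10-mer Agilent arrays, fresh or stripped once, were converted to double-stranded form by primer extension. GST-tagged yeast transcription factors from PURExpress in vitro transcription/translation, full-length or DNA-binding domain only, were applied at about 100-200 nM and detected with fluorescent anti-GST. After masliner normalisation, the Universal PBM Analysis Suite scored each ungapped eight-base word together with its reverse complement by E-score.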

Sequence	PBM E-score
AGGGGCGA	-0.218
TTATTCAA	0.233
GTGGTTTA	-0.0445
CAGAGCGA	0.111
AACCCTCG	-0.127
CCTCGCAA	-0.185
ACATCTAA	-0.0374
GCGCGCCA	0.0425
AGGGACGG	-0.104
GGAGACAC	0.0682
CACTATAC	-0.00384
AATGTGTA	0.00412
GAGTGAAC	-0.115
TATCGCAA	0.0851
CAGAAGCC	-0.0653
CGCCGCGC	-0.15
CGCTACAC	0.00471
ACTTAACA	0.139
ACAAAGCA	0.115
AGCTCACG	-0.042
CGAGACAA	-0.038
ATCGTAAT	0.146

Sequence	PBM E-score
CCATTCAA	0.0605
AGCTAATG	0.078
ATACCTGC	-0.0717
ATGTTTTC	0.133
ATCAAATA	0.235
GATGTGCA	-0.118
CAAGAACG	0.123
ATGGTTGC	-0.146
ATGACGTA	0.211
CATTGGCG	-0.25
ATAGTGAC	0.35
CACCCAGA	-0.0576
CCTTGTTC	-0.212
ATCCTAAT	0.0915
ATCATCTA	0.291
ACCCAGCA	-0.188
AGGAACAG	-0.208
CTACAGAC	-0.229
ATTCTAGG	0.0854
GCAGCGAA	0.0653
ACTCTCCT	-0.168
AGCCAGCG	-0.281

Sequence	PBM E-score
CGGAGTGA	0.237
CAAAGGGG	-0.0494
AGATTCAG	-0.14
CCTAGGCC	-0.277
GCCGACGC	-0.159
ACTCTCTA	-0.0552
AATGTCAG	-0.169
CAAAGATC	0.0538
GACGACAC	0.252
AACAGCCG	-0.168
CAGATGAA	-0.123
ACCGGCAA	-0.259
AGTTTACC	-0.0701
ACAGCATA	0.113
GCAGCGCA	-0.223
CTTTATCA	0.313
GCATCTCA	0.0322
CAAACAAG	-0.17
CACAACTC	0.0448
AAACGCCC	0.133
ATGCATCA	0.22
ATACAAGG	-0.0856

Sequence	PBM E-score
CTTTGAGA	0.156
ATTCCGCA	0.123
AACCCATG	0.00204
AAATGTTC	0.16
CTAAAAGC	-0.181
CAACATTC	-0.0911
TGCCACAA	0.0174
CGTTACGC	0.0353
CCCCCTTC	-0.464
TAACGGAA	0.0913
CACTTGGG	-0.0864
ACCCGGGT	-0.155
AGCGCTTC	0.0607
CAAAATGG	0.0567
CCCGAACG	0.0124
AGTATCAG	-0.00211
ATGGCAAG	0.0854
CTCGAGGA	-0.1
ACGGGACC	-0.119
AAGAGCAT	-0.0336
ACATGGTG	0.109
CTACATAG	0.0196

Sequence	PBM E-score
CTGATCCC	-0.116
GCTTGCGA	0.0664
ATTCATTG	0.0974
ACCACGAC	0.161
AAGCTCAC	0.105
AGATGGCT	-0.106
CCCCTCGG	-0.125
ACAACGGA	0.233
ATCACATG	0.0987
GCCAATAC	-0.111
ATAAGTGA	0.3
AGCGTAGA	-0.17
AGCTGCCC	0.102
AATCAGGA	-0.0118
GACCCGCC	-0.133
GTACACCA	-0.148
CAGACTCA	-0.218
ACTCGCCG	-0.0223
CATCCCGC	0.0181
CGTCGCGC	0.158
GGACGATA	0.268

Given as a markdown table: entries from further up

| Sequence | PBM E-score |
| --- | --- |
| GTGGTTTA | -0.0445 |
| ATCAAATA | 0.235 |
| CCCCTCGG | -0.125 |
